These are yes or no findings as the source states them, for the method shown. Binding seen in cells or lysates may run through a third protein. Some binding calls cover weakened binding; strength is not graded here. For some assays here: Where a sequence is shown, tags or fusion partners need not be part of it.
T1: USP2b (Ubiquitin Specific Protease 2, 45-kDa isoform) (mouse (endogenous in SCN)) (UniProt O88623)
T1 sequence: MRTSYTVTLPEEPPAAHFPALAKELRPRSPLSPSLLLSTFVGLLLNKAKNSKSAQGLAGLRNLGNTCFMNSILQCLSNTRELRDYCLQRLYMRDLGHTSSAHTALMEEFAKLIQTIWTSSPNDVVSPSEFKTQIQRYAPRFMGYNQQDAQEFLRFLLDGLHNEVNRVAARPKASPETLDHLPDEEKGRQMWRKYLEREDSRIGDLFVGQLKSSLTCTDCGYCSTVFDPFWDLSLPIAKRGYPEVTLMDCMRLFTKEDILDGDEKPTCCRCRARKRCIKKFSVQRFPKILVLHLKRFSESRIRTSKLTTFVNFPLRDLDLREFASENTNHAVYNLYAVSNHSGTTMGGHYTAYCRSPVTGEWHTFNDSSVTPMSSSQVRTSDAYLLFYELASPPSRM

Amino acid sequences for entries named in this document (tags omitted).
UniProt O35973: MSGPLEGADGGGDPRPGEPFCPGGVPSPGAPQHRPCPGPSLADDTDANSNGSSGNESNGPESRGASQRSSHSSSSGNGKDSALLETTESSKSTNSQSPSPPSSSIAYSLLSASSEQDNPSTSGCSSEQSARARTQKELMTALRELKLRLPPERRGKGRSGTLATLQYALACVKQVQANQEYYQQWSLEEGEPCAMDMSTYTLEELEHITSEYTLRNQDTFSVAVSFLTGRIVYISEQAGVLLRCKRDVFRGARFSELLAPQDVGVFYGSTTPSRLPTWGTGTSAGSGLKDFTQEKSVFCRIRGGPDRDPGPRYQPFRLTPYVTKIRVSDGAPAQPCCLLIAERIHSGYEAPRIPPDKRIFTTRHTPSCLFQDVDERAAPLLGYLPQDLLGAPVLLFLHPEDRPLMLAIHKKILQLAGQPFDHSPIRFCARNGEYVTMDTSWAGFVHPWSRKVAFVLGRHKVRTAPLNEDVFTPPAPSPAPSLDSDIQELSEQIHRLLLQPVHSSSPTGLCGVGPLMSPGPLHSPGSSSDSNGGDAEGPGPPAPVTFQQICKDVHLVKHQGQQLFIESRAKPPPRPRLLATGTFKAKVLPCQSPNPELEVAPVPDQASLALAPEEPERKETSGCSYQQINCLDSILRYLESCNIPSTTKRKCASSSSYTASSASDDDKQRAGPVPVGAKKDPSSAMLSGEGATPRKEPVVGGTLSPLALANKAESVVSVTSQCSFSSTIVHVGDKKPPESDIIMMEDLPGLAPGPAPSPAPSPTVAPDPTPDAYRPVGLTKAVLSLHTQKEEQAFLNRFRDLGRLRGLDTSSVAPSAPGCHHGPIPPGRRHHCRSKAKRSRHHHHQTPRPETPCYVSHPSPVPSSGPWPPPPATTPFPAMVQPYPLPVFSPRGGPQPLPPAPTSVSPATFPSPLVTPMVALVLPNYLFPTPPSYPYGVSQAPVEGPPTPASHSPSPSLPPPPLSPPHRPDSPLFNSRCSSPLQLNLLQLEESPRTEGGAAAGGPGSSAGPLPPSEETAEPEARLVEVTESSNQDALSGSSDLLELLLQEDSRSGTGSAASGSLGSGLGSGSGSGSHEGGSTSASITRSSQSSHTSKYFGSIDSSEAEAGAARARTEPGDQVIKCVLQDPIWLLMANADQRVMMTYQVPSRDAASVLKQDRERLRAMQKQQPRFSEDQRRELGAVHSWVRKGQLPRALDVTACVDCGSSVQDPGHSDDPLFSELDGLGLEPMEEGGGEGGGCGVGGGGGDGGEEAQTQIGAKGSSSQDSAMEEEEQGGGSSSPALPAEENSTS
UniProt Q9WTL8: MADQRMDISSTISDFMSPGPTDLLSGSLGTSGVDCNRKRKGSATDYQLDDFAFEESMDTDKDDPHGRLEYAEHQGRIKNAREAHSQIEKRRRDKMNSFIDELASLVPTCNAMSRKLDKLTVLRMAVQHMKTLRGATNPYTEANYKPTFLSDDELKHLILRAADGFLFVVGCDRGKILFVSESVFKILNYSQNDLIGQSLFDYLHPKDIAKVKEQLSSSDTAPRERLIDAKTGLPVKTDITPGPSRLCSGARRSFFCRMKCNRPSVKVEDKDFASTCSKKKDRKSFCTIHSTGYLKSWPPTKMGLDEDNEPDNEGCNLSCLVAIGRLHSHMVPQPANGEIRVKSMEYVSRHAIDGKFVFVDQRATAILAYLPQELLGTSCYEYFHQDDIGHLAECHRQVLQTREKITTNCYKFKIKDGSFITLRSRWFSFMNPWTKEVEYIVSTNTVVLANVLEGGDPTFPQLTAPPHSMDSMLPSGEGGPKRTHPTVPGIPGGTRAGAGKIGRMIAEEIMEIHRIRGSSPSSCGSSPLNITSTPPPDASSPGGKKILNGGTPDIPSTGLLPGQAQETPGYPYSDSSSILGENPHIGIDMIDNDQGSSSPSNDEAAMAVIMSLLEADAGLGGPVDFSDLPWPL
UniProt Q9JMK2: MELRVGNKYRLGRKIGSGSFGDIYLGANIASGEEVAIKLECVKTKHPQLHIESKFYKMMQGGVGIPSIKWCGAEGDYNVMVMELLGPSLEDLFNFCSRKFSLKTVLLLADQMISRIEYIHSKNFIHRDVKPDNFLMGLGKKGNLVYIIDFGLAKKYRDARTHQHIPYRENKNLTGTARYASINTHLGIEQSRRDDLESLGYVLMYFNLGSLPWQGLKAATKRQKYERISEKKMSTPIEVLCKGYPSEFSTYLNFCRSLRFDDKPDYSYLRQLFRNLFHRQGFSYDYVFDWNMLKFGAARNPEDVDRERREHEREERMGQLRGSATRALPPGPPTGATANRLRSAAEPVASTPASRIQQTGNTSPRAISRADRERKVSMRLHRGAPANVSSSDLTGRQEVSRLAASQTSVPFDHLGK

T2: FLAG-USP2b (mouse) (UniProt O88623)
T2 sequence: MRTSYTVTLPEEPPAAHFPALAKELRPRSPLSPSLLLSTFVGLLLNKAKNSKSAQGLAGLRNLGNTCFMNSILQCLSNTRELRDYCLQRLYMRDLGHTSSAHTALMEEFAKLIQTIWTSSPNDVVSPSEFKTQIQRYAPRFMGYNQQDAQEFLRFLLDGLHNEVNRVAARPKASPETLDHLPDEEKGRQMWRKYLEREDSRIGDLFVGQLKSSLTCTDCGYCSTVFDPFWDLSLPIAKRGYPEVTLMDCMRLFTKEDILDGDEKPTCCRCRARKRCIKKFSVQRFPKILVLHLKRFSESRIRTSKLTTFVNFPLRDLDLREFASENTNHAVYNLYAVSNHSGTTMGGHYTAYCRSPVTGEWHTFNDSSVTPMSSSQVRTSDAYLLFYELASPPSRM

T3: CRY1 (mouse (endogenous in SCN)) (UniProt P97784)
T3 sequence: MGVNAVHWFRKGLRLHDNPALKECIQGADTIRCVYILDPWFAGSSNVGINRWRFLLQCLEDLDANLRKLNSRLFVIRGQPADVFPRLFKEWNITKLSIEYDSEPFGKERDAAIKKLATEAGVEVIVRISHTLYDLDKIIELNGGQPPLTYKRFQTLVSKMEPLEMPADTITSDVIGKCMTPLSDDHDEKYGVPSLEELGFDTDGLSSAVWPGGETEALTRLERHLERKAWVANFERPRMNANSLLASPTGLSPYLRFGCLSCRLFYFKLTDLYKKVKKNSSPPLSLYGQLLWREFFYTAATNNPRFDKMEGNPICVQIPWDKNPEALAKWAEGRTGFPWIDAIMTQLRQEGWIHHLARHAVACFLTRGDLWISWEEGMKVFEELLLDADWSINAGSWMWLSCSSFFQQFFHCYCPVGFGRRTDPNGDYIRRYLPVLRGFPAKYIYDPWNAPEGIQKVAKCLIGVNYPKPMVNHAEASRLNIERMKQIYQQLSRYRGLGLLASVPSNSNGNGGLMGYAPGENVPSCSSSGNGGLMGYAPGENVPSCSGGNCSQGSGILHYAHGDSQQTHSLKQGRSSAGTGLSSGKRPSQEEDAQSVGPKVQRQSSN


Key:
[1] = target: PER1 (mouse (endogenous in SCN)) (UniProt O35973); test: co-IP; endogenous proteins of micro-dissected, pooled SCN extracts (N = 15) of WT C57BL/6 mice at ZT12; protein A beads conjugated with rabbit antibodies against BMAL1, USP2, ubiquitin, PER1, CRY1, CK1ε or EGFR; lysis buffer 75 mM Hepes pH 7.4, 150 mM KCl, 0.05% NP-40; overnight at 4°C; western blot with other antibodies
[2] = target: T1, USP2b (Ubiquitin Specific Protease 2, 45-kDa isoform) (mouse (endogenous in SCN)); test: as above
[3] = target: BMAL1 (mouse (endogenous in SCN)) (UniProt Q9WTL8); test: as above
FLAG-USP2b (mouse) = target: T2, FLAG-USP2b (mouse); test: co-IP; NIH 3T3 cells co-transfected with HA-ubiquitin and a bicistronic construct (FLAG-USP2b/MYC-BMAL1, or FLAG-GFP/MYC-BMAL1 as control); IP with FLAG, MYC or HA antibodies; western blot for MYC, FLAG and HA
[4] = target: T3, CRY1 (mouse (endogenous in SCN)); test: co-IP; endogenous proteins of micro-dissected, pooled SCN extracts (N = 15) of WT C57BL/6 mice at ZT12; protein A beads conjugated with rabbit antibodies against BMAL1, USP2, ubiquitin, PER1, CRY1, CK1ε or EGFR; lysis buffer 75 mM Hepes pH 7.4, 150 mM KCl, 0.05% NP-40; overnight at 4°C; western blot with other antibodies
[5] = target: CK1ε (mouse (endogenous in SCN)) (UniProt Q9JMK2); test: as above
MYC-BMAL1 (mouse) = MYC-BMAL1 (mouse) (UniProt Q9WTL8); test: co-IP; NIH 3T3 cells co-transfected with HA-ubiquitin and a bicistronic construct (FLAG-USP2b/MYC-BMAL1, or FLAG-GFP/MYC-BMAL1 as control); IP with FLAG, MYC or HA antibodies; western blot for MYC, FLAG and HA

Molecule | binding [1] | binding [2] | binding [3] | further results
BMAL1 (from UniProt Q9WTL8 1-632) | binds | binds |  | 
MYC-BMAL1 (from UniProt Q9WTL8 1-632) |  |  |  | binding (FLAG-USP2b (mouse)): binds
FLAG-USP2b (enzyme, UniProt O88623-2 1-396) MRTSYTVTLPEEPPAAHFPALAKELRPRSPLSPSLLLSTFVGLLLNKAKNSKSAQGLAGLRNLGNTCFMNSILQCLSNTRELRDYCLQRLYMRDLGHTSSAHTALMEEFAKLIQTIWTSSPNDVVSPSEFKTQIQRYAPRFMGYNQQDAQEFLRFLLDGLHNEVNRVAARPKASPETLDHLPDEEKGRQMWRKYLEREDSRIGDLFVGQLKSSLTCTDCGYCSTVFDPFWDLSLPIAKRGYPEVTLMDCMRLFTKEDILDGDEKPTCCRCRARKRCIKKFSVQRFPKILVLHLKRFSESRIRTSKLTTFVNFPLRDLDLREFASENTNHAVYNLYAVSNHSGTTMGGHYTAYCRSPVTGEWHTFNDSSVTPMSSSQVRTSDAYLLFYELASPPSRM |  |  |  | binding (MYC-BMAL1 (mouse)): binds

Second part, led by results:

binding [1] | binding [2] | binding [3] | Molecule | further results
 | binds | binds | CK1ε (from UniProt Q9JMK2 1-416) (enzyme) | 
 | binds |  | CRY1 (protein, UniProt P97784 1-606) MGVNAVHWFRKGLRLHDNPALKECIQGADTIRCVYILDPWFAGSSNVGINRWRFLLQCLEDLDANLRKLNSRLFVIRGQPADVFPRLFKEWNITKLSIEYDSEPFGKERDAAIKKLATEAGVEVIVRISHTLYDLDKIIELNGGQPPLTYKRFQTLVSKMEPLEMPADTITSDVIGKCMTPLSDDHDEKYGVPSLEELGFDTDGLSSAVWPGGETEALTRLERHLERKAWVANFERPRMNANSLLASPTGLSPYLRFGCLSCRLFYFKLTDLYKKVKKNSSPPLSLYGQLLWREFFYTAATNNPRFDKMEGNPICVQIPWDKNPEALAKWAEGRTGFPWIDAIMTQLRQEGWIHHLARHAVACFLTRGDLWISWEEGMKVFEELLLDADWSINAGSWMWLSCSSFFQQFFHCYCPVGFGRRTDPNGDYIRRYLPVLRGFPAKYIYDPWNAPEGIQKVAKCLIGVNYPKPMVNHAEASRLNIERMKQIYQQLSRYRGLGLLASVPSNSNGNGGLMGYAPGENVPSCSSSGNGGLMGYAPGENVPSCSGGNCSQGSGILHYAHGDSQQTHSLKQGRSSAGTGLSSGKRPSQEEDAQSVGPKVQRQSSN | 
binds |  | binds | USP2b (Ubiquitin Specific Protease 2, 45-kDa isoform) (enzyme, UniProt O88623-2 1-396) MRTSYTVTLPEEPPAAHFPALAKELRPRSPLSPSLLLSTFVGLLLNKAKNSKSAQGLAGLRNLGNTCFMNSILQCLSNTRELRDYCLQRLYMRDLGHTSSAHTALMEEFAKLIQTIWTSSPNDVVSPSEFKTQIQRYAPRFMGYNQQDAQEFLRFLLDGLHNEVNRVAARPKASPETLDHLPDEEKGRQMWRKYLEREDSRIGDLFVGQLKSSLTCTDCGYCSTVFDPFWDLSLPIAKRGYPEVTLMDCMRLFTKEDILDGDEKPTCCRCRARKRCIKKFSVQRFPKILVLHLKRFSESRIRTSKLTTFVNFPLRDLDLREFASENTNHAVYNLYAVSNHSGTTMGGHYTAYCRSPVTGEWHTFNDSSVTPMSSSQVRTSDAYLLFYELASPPSRM | binding [4]: binds weakly; binding [5]: binds weakly
